Results taken from patent US9034583B2, “Rapid enzyme-linked immunosorbent assay for detection and identification of pathogens and determination of antimicrobial susceptibility” (priority 2013, dated 2015).
At least one structure is not confirmed: it was looked up by name or label, or the drawing left a doubt.

Experiments:
GBS = settings: cited from earlier work
[1] = test system: Clindamycin Sensitive Strain (GBS 12386); assay: N-Assay antibiotic susceptibility, GBS with Clindamycin (Example 6); format: cell-based, Group B Streptococcus (GBS); settings: summary of Table 1; incubated 24 hours at 37° C. with Clindamycin

Structure (SMILES): CCC[C@@H]1C[C@@H](C(=O)N[C@@H]([C@H]2O[C@H](SC)[C@H](O)[C@@H](O)[C@H]2O)[C@H](C)Cl)N(C)C1 [Clindamycin, clindamycin]
- breakpoint of clindamycin for GBS resistance (GBS): 2 µg/mL
- N-Assay result of wells containing GBS sensitive to Clindamycin [1]: negative
